# Test results from the supplement of paper PMC12823440, “Inhibitors supercharge kinase turnover through native proteolytic circuits” (Nature, 2025).
# Chains of the proteins cited; added tags and fusions are not shown. Lines headed by an entry give the natural chain unless they say otherwise; changes in a name come on top.
# UniProt P48729: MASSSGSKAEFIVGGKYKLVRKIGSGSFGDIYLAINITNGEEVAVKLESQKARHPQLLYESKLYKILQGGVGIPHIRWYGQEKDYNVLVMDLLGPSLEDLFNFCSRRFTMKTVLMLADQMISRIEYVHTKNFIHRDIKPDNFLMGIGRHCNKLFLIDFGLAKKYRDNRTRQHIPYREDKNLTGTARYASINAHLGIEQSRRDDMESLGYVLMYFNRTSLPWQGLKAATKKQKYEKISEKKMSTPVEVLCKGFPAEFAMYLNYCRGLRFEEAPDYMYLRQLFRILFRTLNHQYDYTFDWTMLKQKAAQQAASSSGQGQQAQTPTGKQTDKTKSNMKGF
# UniProt Q9UBF8: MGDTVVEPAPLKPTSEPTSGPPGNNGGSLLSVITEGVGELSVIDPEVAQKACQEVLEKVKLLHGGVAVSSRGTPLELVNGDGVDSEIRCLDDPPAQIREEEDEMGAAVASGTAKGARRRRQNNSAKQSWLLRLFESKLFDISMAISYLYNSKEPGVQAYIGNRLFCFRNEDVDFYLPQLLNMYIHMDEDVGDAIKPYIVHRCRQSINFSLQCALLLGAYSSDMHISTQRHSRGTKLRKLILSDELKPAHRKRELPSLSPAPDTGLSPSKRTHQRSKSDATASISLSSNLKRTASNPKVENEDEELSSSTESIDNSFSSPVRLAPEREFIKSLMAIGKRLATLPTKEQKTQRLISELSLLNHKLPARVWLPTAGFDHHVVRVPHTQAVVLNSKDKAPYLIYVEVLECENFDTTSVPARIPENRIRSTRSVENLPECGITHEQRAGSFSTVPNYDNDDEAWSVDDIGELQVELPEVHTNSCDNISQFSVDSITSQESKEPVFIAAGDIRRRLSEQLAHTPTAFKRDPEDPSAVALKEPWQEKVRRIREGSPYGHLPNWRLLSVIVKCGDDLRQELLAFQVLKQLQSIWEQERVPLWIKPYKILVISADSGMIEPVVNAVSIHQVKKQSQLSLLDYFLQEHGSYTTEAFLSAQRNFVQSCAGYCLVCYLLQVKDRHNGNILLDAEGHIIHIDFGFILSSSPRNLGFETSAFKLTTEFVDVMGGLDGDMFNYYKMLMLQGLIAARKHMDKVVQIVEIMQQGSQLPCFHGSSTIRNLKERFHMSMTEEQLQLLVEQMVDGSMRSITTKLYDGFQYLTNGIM
# UniProt P31749: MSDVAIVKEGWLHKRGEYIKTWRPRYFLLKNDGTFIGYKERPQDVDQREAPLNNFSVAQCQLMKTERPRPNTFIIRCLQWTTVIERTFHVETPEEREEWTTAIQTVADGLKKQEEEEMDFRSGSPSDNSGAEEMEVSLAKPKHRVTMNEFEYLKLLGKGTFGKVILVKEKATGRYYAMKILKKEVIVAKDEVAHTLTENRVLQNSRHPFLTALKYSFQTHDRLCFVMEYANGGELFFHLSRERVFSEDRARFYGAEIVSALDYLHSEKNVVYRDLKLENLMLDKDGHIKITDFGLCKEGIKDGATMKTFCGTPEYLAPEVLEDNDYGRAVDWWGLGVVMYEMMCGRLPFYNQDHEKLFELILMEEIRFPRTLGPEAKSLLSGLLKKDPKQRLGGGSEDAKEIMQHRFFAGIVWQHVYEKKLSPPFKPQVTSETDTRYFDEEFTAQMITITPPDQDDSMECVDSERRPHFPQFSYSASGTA
# UniProt Q16288, whole entry, looked up: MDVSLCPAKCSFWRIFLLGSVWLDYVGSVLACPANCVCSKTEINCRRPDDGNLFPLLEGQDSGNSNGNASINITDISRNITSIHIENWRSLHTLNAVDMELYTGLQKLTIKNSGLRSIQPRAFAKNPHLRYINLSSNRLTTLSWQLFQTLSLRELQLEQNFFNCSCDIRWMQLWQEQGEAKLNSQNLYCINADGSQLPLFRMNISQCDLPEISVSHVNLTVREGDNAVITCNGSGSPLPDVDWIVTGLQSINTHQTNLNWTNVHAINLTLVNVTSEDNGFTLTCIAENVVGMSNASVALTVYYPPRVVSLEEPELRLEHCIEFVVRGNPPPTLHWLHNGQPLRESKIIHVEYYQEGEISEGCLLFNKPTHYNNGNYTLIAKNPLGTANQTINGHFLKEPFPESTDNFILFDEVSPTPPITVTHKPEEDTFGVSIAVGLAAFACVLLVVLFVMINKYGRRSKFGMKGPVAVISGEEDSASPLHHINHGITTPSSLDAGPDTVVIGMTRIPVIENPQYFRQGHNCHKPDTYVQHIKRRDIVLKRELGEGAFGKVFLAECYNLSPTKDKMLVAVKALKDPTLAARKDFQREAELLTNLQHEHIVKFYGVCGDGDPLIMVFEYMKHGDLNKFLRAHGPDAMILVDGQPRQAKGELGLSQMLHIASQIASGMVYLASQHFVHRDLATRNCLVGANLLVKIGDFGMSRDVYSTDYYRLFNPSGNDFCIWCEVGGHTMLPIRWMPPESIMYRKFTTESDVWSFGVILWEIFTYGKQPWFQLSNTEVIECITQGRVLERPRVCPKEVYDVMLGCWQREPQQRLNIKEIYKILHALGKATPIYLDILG
# UniProt Q96GD4, whole entry: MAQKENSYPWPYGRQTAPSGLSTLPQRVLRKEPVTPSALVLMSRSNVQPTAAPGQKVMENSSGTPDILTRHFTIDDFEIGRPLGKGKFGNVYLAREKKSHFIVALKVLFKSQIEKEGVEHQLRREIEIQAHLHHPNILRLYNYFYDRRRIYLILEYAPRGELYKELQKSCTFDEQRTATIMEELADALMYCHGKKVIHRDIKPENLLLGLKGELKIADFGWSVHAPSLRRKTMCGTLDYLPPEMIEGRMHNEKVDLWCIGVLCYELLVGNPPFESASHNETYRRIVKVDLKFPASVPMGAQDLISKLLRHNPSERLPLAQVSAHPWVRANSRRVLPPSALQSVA
# UniProt P48730: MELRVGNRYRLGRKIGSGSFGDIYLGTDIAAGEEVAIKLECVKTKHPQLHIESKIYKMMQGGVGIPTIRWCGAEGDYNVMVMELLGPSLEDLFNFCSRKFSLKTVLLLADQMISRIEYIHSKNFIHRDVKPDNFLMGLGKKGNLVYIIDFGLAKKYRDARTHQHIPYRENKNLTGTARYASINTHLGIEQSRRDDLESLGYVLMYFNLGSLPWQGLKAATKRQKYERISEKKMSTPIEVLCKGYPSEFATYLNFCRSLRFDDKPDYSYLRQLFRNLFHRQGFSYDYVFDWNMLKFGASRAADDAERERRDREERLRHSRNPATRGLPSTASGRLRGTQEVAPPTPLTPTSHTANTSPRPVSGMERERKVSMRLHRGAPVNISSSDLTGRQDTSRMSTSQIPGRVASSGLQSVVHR
# UniProt Q00534, whole entry: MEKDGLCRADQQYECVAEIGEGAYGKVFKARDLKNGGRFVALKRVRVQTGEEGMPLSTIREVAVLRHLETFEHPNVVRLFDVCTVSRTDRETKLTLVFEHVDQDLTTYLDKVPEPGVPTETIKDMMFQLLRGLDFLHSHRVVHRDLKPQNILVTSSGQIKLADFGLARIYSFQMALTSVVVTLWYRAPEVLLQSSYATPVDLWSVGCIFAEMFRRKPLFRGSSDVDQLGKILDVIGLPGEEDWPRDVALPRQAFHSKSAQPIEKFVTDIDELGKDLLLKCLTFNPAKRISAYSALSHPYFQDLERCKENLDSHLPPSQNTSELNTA
# UniProt P09619, whole entry: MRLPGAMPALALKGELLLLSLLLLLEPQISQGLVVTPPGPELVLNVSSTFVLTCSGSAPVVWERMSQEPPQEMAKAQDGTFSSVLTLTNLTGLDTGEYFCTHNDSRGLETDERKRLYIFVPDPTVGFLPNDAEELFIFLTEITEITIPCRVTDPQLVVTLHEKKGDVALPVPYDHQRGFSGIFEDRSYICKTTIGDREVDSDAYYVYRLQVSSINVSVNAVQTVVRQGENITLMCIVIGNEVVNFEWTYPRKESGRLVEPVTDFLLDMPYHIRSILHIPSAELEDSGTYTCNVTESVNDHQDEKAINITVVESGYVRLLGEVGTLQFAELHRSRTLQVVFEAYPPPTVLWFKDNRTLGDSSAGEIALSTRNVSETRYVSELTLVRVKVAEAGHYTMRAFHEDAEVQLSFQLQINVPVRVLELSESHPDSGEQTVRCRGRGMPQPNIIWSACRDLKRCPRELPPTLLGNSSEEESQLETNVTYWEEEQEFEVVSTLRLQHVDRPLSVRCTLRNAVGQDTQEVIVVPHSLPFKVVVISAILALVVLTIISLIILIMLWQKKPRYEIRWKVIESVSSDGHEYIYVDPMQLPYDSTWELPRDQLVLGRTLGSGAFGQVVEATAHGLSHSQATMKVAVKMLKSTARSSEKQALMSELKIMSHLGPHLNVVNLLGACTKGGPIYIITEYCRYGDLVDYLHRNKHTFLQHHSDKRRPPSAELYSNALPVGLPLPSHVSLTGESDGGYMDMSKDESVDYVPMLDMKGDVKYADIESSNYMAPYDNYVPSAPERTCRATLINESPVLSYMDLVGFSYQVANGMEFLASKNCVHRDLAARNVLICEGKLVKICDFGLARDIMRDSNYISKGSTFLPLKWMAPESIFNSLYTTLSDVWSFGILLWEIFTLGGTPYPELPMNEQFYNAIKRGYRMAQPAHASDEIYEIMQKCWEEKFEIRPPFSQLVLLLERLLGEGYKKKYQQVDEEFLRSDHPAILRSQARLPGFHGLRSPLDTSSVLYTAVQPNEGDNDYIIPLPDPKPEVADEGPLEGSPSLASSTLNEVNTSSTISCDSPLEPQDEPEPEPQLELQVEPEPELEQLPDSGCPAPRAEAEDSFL
# UniProt Q9BRS2: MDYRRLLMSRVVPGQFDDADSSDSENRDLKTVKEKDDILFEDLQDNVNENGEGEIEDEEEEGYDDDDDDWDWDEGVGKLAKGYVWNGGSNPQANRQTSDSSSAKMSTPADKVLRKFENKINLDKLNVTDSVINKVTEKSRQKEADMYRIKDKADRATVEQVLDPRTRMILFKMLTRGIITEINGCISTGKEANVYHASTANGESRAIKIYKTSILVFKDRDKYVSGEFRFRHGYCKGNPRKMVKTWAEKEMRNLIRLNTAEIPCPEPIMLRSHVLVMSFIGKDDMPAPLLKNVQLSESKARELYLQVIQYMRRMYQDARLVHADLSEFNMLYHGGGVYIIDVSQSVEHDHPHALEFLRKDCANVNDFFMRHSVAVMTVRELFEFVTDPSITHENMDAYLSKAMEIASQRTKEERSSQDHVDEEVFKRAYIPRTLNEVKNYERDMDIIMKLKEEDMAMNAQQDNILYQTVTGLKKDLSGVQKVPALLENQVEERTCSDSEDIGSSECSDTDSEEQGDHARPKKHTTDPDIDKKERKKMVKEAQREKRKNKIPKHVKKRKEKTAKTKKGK
# UniProt Q9NYA1, whole entry: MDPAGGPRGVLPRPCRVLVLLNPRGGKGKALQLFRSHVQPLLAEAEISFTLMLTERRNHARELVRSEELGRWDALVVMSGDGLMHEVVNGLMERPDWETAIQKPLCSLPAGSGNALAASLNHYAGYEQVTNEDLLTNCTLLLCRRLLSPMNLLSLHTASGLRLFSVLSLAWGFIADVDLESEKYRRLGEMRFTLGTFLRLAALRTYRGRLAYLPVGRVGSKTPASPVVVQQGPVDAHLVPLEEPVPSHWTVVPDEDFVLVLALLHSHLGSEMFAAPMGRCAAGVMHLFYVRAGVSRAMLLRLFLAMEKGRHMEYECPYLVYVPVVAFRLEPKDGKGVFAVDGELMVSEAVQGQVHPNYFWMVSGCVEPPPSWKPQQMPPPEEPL
# UniProt P53667: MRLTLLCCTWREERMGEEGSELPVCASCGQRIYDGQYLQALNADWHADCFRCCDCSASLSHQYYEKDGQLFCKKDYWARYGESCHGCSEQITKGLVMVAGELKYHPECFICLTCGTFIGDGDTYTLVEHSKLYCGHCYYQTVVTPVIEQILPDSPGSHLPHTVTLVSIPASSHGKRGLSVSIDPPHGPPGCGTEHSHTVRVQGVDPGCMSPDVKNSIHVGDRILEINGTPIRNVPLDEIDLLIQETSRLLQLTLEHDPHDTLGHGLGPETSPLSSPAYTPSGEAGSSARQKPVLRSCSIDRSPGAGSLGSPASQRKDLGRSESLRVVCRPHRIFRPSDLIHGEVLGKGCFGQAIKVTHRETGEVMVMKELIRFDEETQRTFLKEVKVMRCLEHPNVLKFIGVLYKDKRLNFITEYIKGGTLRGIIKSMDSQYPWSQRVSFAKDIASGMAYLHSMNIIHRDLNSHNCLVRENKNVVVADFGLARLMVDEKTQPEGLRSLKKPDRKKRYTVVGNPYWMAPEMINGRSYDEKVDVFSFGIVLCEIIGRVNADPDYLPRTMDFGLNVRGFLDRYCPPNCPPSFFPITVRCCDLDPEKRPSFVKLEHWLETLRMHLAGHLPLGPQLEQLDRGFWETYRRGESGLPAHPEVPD
# This is one part of the list. Hit calls seldom repeat between salt and free forms of one compound.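 Kinases, fused to nanoluciferase, were expressed in K562 cells; luminescence was measured every 4 h from 2 to 18 h as percent of control (DMSO = 100%, positive control = 0%). A time point is decreased if signal falls significantly (2 sigma). Hits were called by the authors by a rule that is not shown; the count of time points alone does not decide it.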
# Compound: C/C=C1\C(=O)C[C@H]2[C@@H]3CCC4=CC(=O)CC[C@]4(C)[C@H]3CC[C@]12C [(Z)-Guggulsterone]
# Test: number of time points (of 5) at which kinase-Nluc abundance scored as decreased, DMSO-normalised (count); higher = more persistent destabilization
# Settings: 10 µM; K562; 2-18 h
row,Target,number of time points
1,PTK2 (UniProt Q05397),0
2,RAF1_S257L (clone: RAF1_mut) (UniProt P04049),0
3,CSNK1A1 (UniProt P48729),0
4,LIMK2 (UniProt P53671),0
5,PIK4CB (UniProt Q9UBF8),0
6,HER2 (UniProt P04626),0
7,PTK2B (UniProt Q14289),0
8,AKT1 (UniProt P31749),0
9,NTRK3 (UniProt Q16288),0
10,MAPK1 (UniProt P28482),0
11,RIPK2 (UniProt O43353),0
12,AURKB (UniProt Q96GD4),0
13,ERN1 (UniProt O75460),0
14,CSNK1D (UniProt P48730),0
15,ROR2 (UniProt Q01974),0
16,FGFR1 (UniProt P11362),0

row,Target,number of time points
1,STK38 (UniProt Q15208),0
2,CDK6 (UniProt Q00534),0
3,SYK (UniProt P43405),0
4,PDGFRB (UniProt P09619),0
5,MAP2K1 (UniProt Q02750),0
6,TYK2 (UniProt P29597),0
7,RIOK1 (UniProt Q9BRS2),0
8,SPHK1 (UniProt Q9NYA1),0
9,MAPK4 (UniProt P31152),0
10,CDK10 (UniProt Q15131),0
11,MAP2K2 (UniProt P36507),0
12,LIMK1 (UniProt P53667),0
13,PDPK1 (UniProt O15530),0
14,PAK4 (UniProt O96013),0
15,BMX (UniProt P51813),0

# Compound: C/C=C1\C(=O)C[C@H]2[C@@H]3CCC4=CC(=O)CC[C@]4(C)[C@H]3CC[C@]12C [Guggulsterone]
# Test: as above
# Settings: 10 µM; K562; 2-18 h
row,Target,number of time points
1,PTK2 (UniProt Q05397),0
2,RAF1_S257L (clone: RAF1_mut) (UniProt P04049),0
3,CSNK1A1 (UniProt P48729),0
4,LIMK2 (UniProt P53671),0
5,PIK4CB (UniProt Q9UBF8),0
6,HER2 (UniProt P04626),0
7,PTK2B (UniProt Q14289),0
8,AKT1 (UniProt P31749),0
9,NTRK3 (UniProt Q16288),0
10,MAPK1 (UniProt P28482),0
11,RIPK2 (UniProt O43353),0
12,AURKB (UniProt Q96GD4),0
13,ERN1 (UniProt O75460),0
14,CSNK1D (UniProt P48730),0
15,ROR2 (UniProt Q01974),0
16,FGFR1 (UniProt P11362),0

row,Target,number of time points
1,STK38 (UniProt Q15208),0
2,CDK6 (UniProt Q00534),0
3,SYK (UniProt P43405),0
4,PDGFRB (UniProt P09619),0
5,MAP2K1 (UniProt Q02750),0
6,TYK2 (UniProt P29597),0
7,RIOK1 (UniProt Q9BRS2),0
8,SPHK1 (UniProt Q9NYA1),0
9,MAPK4 (UniProt P31152),0
10,CDK10 (UniProt Q15131),0
11,MAP2K2 (UniProt P36507),0
12,LIMK1 (UniProt P53667),0
13,PDPK1 (UniProt O15530),0
14,PAK4 (UniProt O96013),0
15,BMX (UniProt P51813),0

# Compound: C=CC(=O)N1CCN(c2ncnc3c(F)c(-c4c(O)cccc4F)c(Cl)cc23)CC1
# Test: as above
# Settings: 2.5 µM; K562; 2-18 h
row,Target,number of time points
1,PTK2 (UniProt Q05397),0
2,RAF1_S257L (clone: RAF1_mut) (UniProt P04049),0
3,CSNK1A1 (UniProt P48729),0
4,LIMK2 (UniProt P53671),0
5,PIK4CB (UniProt Q9UBF8),0
6,HER2 (UniProt P04626),0
7,PTK2B (UniProt Q14289),0
8,AKT1 (UniProt P31749),0
9,NTRK3 (UniProt Q16288),0
10,MAPK1 (UniProt P28482),0
11,RIPK2 (UniProt O43353),0
12,AURKB (UniProt Q96GD4),0
13,ERN1 (UniProt O75460),0
14,CSNK1D (UniProt P48730),0
15,ROR2 (UniProt Q01974),0
16,FGFR1 (UniProt P11362),0

row,Target,number of time points
1,STK38 (UniProt Q15208),0
2,CDK6 (UniProt Q00534),0
3,SYK (UniProt P43405),0
4,PDGFRB (UniProt P09619),0
5,MAP2K1 (UniProt Q02750),0
6,TYK2 (UniProt P29597),0
7,RIOK1 (UniProt Q9BRS2),0
8,SPHK1 (UniProt Q9NYA1),0
9,MAPK4 (UniProt P31152),0
10,CDK10 (UniProt Q15131),0
11,MAP2K2 (UniProt P36507),0
12,LIMK1 (UniProt P53667),0
13,PDPK1 (UniProt O15530),0
14,PAK4 (UniProt O96013),0
15,BMX (UniProt P51813),0
